According to the supplement of paper PMC12819154, “High-throughput peptide-centric local stability assay extends protein–ligand identification to membrane proteins, tissues and bacteria” (Nature Structural & Molecular Biology, 2025):
This is one part of the list. Most entries show no effect beyond the scatter of the controls.

Chains of the proteins cited; added tags and fusions are not shown. Lines headed by an entry give the natural chain unless they say otherwise; changes in a name come on top.
UniProt P84103: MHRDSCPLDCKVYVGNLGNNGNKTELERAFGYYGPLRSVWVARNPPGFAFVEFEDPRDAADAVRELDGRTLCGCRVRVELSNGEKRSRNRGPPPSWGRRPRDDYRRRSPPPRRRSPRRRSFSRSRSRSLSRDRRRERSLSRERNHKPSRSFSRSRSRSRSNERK
UniProt Q12980: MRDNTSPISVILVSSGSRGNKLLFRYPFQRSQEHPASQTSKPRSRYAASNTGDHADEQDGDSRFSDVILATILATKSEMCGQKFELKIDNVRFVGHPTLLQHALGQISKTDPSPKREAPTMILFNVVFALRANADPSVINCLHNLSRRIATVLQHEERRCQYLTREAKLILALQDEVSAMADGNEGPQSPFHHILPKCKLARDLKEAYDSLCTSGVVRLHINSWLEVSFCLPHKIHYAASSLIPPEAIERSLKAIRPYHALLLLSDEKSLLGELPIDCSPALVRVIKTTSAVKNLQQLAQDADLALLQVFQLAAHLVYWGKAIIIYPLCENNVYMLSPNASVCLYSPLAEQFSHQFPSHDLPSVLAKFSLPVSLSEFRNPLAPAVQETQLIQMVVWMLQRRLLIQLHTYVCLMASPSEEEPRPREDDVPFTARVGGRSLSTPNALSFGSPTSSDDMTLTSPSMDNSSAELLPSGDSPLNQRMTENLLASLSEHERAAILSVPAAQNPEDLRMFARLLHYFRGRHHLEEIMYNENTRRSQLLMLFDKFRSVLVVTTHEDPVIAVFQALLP
UniProt Q13017, whole entry: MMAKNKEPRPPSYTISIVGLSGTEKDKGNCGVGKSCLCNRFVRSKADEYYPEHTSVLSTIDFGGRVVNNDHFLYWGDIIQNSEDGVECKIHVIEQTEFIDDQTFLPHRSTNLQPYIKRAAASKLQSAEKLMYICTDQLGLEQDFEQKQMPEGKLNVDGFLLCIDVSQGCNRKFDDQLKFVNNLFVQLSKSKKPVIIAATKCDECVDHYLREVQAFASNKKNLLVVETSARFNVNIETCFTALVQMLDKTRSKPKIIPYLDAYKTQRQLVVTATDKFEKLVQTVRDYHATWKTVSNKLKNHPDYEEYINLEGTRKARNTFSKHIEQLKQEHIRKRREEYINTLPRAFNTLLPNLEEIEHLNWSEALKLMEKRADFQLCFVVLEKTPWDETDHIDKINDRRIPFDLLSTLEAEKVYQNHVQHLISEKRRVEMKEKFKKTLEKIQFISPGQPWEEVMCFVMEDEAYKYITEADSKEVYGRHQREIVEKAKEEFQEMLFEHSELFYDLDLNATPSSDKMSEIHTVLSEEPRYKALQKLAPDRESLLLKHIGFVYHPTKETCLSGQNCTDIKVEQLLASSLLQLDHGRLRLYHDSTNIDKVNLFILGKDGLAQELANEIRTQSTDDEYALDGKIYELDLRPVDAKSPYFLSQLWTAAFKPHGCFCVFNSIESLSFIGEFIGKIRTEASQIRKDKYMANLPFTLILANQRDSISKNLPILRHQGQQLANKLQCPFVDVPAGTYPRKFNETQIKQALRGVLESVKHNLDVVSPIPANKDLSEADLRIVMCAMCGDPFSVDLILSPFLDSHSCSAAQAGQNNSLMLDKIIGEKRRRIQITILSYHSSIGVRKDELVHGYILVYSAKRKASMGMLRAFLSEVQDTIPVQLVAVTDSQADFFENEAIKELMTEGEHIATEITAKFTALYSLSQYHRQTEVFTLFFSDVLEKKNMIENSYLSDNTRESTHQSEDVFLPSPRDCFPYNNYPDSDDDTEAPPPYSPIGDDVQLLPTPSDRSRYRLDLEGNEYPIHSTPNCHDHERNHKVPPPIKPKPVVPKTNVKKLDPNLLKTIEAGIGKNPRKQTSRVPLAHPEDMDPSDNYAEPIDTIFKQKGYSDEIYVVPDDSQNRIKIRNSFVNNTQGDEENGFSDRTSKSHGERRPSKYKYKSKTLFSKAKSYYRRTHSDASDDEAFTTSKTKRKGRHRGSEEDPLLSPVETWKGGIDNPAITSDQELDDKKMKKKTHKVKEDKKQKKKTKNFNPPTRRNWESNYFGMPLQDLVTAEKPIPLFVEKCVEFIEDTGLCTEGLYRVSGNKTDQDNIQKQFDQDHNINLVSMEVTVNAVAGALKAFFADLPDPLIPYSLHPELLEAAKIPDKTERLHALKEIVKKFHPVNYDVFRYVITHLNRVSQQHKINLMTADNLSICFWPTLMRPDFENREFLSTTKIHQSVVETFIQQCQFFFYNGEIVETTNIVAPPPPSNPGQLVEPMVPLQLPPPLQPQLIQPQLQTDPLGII
UniProt Q04726: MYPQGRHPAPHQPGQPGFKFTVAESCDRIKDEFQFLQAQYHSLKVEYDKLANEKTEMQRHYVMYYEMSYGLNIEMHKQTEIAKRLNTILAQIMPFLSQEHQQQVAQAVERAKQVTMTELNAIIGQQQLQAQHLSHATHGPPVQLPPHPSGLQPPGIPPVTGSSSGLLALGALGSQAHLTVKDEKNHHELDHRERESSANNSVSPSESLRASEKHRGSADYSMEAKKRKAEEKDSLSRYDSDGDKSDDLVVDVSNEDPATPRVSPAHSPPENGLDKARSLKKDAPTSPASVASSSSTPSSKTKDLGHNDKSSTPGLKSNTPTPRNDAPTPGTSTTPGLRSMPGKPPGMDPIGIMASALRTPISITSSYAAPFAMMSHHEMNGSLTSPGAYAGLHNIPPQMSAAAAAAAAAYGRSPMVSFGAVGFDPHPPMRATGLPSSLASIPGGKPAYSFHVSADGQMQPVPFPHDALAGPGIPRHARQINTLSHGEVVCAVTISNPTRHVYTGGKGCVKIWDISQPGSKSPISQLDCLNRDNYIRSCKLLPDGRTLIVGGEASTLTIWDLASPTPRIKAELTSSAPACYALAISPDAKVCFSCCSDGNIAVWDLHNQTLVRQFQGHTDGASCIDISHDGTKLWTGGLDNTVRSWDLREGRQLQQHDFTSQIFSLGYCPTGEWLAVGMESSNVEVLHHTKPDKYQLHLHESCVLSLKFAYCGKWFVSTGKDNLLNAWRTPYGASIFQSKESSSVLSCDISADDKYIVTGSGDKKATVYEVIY
UniProt Q04760: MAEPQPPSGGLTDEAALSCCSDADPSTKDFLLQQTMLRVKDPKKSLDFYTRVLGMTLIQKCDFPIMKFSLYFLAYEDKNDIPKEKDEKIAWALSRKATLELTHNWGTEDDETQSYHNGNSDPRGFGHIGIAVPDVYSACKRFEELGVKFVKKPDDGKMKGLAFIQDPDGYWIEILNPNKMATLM
UniProt Q01844: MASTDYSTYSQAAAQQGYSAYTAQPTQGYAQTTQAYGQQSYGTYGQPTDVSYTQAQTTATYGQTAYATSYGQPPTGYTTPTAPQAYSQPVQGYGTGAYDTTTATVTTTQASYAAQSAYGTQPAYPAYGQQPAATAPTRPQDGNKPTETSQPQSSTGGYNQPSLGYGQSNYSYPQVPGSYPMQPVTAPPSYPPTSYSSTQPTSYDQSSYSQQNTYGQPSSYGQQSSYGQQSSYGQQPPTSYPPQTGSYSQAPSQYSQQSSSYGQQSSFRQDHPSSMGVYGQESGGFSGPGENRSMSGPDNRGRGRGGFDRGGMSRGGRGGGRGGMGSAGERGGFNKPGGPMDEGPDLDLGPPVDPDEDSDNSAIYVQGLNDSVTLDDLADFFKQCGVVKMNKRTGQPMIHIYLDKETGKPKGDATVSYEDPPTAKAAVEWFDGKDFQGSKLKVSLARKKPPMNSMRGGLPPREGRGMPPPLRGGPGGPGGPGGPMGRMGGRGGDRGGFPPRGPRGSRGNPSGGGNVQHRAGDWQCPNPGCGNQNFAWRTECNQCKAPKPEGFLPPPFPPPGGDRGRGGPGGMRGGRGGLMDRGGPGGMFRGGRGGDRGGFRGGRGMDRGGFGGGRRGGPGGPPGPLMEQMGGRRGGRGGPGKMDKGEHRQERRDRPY
UniProt Q13023: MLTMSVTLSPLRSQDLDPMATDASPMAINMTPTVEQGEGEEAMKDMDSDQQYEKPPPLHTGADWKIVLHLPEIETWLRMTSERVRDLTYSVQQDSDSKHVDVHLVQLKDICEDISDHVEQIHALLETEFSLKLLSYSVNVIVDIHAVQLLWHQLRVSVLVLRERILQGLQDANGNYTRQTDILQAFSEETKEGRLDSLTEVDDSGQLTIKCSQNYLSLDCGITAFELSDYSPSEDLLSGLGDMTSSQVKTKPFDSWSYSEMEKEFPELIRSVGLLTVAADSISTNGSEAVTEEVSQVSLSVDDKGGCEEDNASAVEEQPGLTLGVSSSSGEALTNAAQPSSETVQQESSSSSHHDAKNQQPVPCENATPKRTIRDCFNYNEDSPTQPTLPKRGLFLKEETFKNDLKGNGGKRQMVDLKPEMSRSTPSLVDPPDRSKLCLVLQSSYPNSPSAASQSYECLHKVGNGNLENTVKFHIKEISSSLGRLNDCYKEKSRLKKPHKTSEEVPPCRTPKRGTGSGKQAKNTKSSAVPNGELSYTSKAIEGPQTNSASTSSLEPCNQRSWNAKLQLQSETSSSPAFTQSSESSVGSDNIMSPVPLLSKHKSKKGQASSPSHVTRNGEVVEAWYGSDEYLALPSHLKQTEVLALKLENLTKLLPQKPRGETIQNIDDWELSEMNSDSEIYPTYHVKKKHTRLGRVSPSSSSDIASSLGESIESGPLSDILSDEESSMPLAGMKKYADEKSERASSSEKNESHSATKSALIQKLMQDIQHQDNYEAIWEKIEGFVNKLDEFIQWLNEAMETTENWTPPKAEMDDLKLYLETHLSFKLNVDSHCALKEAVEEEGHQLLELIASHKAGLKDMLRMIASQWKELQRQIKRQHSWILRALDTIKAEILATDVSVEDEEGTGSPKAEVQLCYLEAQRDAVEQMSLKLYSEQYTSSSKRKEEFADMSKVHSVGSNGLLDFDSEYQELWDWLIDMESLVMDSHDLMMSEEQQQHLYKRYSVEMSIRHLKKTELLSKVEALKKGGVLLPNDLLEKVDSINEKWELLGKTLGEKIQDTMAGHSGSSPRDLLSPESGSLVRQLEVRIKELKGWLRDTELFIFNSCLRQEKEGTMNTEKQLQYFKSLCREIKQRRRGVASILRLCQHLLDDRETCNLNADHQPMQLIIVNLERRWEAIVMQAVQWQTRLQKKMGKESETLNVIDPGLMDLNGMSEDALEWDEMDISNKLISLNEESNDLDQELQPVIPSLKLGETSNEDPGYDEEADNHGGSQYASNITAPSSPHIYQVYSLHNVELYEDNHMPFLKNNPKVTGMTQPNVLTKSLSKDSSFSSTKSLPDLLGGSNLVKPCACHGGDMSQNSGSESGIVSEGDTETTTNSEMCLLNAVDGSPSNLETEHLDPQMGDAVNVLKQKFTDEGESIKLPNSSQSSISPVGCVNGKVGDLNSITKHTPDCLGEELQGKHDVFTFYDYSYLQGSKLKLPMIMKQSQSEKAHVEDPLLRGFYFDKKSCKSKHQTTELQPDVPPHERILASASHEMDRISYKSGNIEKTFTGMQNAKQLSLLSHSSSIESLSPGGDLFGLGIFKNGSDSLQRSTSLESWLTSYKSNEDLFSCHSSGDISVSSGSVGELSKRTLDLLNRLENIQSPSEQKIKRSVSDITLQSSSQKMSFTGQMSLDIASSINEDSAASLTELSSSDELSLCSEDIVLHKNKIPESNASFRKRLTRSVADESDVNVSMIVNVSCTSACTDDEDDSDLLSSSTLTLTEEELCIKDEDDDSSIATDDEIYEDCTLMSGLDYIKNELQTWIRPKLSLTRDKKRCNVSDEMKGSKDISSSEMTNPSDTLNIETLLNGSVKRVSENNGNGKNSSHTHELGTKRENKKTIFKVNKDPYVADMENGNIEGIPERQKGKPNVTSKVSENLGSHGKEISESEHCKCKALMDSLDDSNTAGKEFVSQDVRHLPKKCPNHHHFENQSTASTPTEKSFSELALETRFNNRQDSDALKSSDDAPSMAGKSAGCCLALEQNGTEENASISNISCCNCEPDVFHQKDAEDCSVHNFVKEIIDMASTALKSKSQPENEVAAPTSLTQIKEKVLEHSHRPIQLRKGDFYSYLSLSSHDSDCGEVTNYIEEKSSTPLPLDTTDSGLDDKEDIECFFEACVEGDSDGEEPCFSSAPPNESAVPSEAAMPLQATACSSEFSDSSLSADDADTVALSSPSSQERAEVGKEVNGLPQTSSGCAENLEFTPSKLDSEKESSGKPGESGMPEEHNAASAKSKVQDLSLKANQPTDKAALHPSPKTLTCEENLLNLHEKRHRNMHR
UniProt Q08752, whole entry: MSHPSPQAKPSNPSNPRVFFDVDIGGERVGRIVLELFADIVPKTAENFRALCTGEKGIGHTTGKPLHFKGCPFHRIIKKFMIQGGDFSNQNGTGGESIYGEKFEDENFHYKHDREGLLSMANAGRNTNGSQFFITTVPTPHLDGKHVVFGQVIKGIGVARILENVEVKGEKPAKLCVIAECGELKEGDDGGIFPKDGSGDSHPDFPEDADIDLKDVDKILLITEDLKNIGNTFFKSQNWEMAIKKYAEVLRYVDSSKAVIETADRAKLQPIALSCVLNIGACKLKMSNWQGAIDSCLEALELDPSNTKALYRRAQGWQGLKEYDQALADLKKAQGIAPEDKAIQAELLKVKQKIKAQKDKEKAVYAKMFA

compound: Cc1nc(Nc2ncc(C(=O)Nc3c(C)cccc3Cl)s2)cc(N2CCN(CCO)CC2)n1 [dasatinib]; assay: log2 fold change of tryptic peptide abundance, ligand vs vehicle (limited proteolysis) (log2 ratio); higher = more trypsin-susceptible (destabilized); settings: ligand concentration: 5 uM; sample: K562 cleared lysate

| Target | log2 fold change |
| --- | --- |
| LSM11 (peptide sequence: LMVAKEEGDGAAGAGR, peptide start residue: 116) (UniProt P83369) | 0.258 |
| UniProt P84103 (peptide sequence: VYVGNLGNNGNKTELER, peptide start residue: 12) | 0.0509 |
| DST (peptide sequence: GFHSGEDSGLITTAAAR, peptide start residue: 7461) (UniProt Q03001) | 0.159 |
| UniProt Q12980 (peptide sequence: GRHHLEEIMYNENTR, peptide start residue: 522) | -0.63 |
| NFX1 (peptide sequence: LKCEWSNR, peptide start residue: 188) (UniProt Q12986) | 0.218 |
| CDR2 (peptide sequence: QHFVYDHVFAEK, peptide start residue: 169) (UniProt Q01850) | -0.31 |
| ARHGAP5 (peptide sequence: TIEAGIGKNPR, peptide start residue: 1061) (UniProt Q13017) | -0.163 |
| LAMTOR4 (peptide sequence: LSVVFGEHTLLVTVSGQR, peptide start residue: 66) (UniProt Q0VGL1) | -0.202 |
| TP53BP1 (peptide sequence: GNLLHFPSSQGEEEK, peptide start residue: 1060) (UniProt Q12888) | 0.836 |
| UniProt Q05513 (peptide sequence: LTDYGMCK, peptide start residue: 394) | -0.122 |
| UniProt Q07955 (peptide sequence: IYVGNLPPDIR, peptide start residue: 18) | 0.0866 |
| TRAF2 (peptide sequence: AHHEVCPK, peptide start residue: 177) (UniProt Q12933) | -0.145 |
| PRKCQ (peptide sequence: DMNEFETEGFFALHQR, peptide start residue: 130) (UniProt Q04759) | 0.244 |
| TLE3 (peptide sequence: TKDLGHNDKSSTPGLK, peptide start residue: 301) (UniProt Q04726) | -0.506 |
| REEP5 (peptide sequence: AKETADAITK, peptide start residue: 163) (UniProt Q00765) | -0.068 |
| BCL2L1 (peptide sequence: EAGDEFELR, peptide start residue: 92) (UniProt Q07817) | 0.0682 |
| GLO1 (peptide sequence: GFGHIGIAVPDVYSACKR, peptide start residue: 124) (UniProt Q04760) | 0.157 |
| AMPD2 (peptide sequence: HFPLDLR, peptide start residue: 110) (UniProt Q01433) | -0.149 |

Some values from the entries so far.
Value for TRAF2 (peptide sequence: AHHEVCPK, peptide start residue: 177) (UniProt Q12933) under log2 fold change: -0.145
Value for UniProt Q05513 (peptide sequence: LTDYGMCK, peptide start residue: 394) under log2 fold change: -0.122
Value for REEP5 (peptide sequence: AKETADAITK, peptide start residue: 163) (UniProt Q00765) under log2 fold change: -0.068

Further records follow.

| Target | log2 fold change |
| --- | --- |
| ARHGAP1 (peptide sequence: LEQLGIPR, peptide start residue: 201) (UniProt Q07960) | -0.164 |
| TFCP2 (peptide sequence: MVRPRLTIYVCQESLQLR, peptide start residue: 385) (UniProt Q12800) | 0.107 |
| EWSR1 (peptide sequence: TGQPMIHIYLDK, peptide start residue: 393) (UniProt Q01844) | 0.293 |
| SLC20A2 (peptide sequence: AADSSAPEDSEK, peptide start residue: 404) (UniProt Q08357) | 0.624 |
| MRPL28 (peptide sequence: TPTPVHYRPHGAK, peptide start residue: 37) (UniProt Q13084) | 0.424 |
| RBM10 (peptide sequence: SEAEQKLPLGTR, peptide start residue: 241) (UniProt P98175) | -0.564 |
| UniProt Q12872 (peptide sequence: HSLPSAYR, peptide start residue: 790) | -0.103 |
| LMAN2 (peptide sequence: NRDHDTFLAVR, peptide start residue: 208) (UniProt Q12907) | -0.486 |
| RASSF7 (peptide sequence: NAEELGHEAFWEQELR, peptide start residue: 165) (UniProt Q02833) | 0.611 |
| UniProt Q08623 (peptide sequence: FSPPPAMEK, peptide start residue: 162) | -0.0708 |
| NFATC3 (peptide sequence: FTYTPVLMK, peptide start residue: 695) (UniProt Q12968) | 0.242 |
| UniProt Q13023 (peptide sequence: SERASSSEK, peptide start residue: 741) | 0.112 |
| PPID (peptide sequence: YVDSSKAVIETADR, peptide start residue: 252) (UniProt Q08752) | 0.289 |
| CAV1 (peptide sequence: YVDSEGHLYTVPIR, peptide start residue: 6) (UniProt Q03135) | -0.0929 |
| GABPA (peptide sequence: YYYDGDMICKVQGK, peptide start residue: 380) (UniProt Q06546) | -0.2 |
| HMGXB3 (peptide sequence: ICPSCGVNLAK, peptide start residue: 641) (UniProt Q12766) | 0.285 |
| UniProt Q08050 (peptide sequence: HNLSLHDMFVR, peptide start residue: 287) | -0.243 |
| CPSF1 (peptide sequence: CAAMLVYGTR, peptide start residue: 149) (UniProt Q10570) | 0.295 |
